Assay results published in PubChem BioAssay AID720504 (National Center for Advancing Translational Sciences (NCATS), 2013).
Out of some 360,000 compounds screened, about 10,000 (2.8%) were called active. The inconclusive results got no clear call from the source; some entries with a clear call stand among them for comparison. Calls come from the whole dose curve; as a rule, active = well fitted inhibition curve with a large enough effect; inconclusive = small, poorly fitted or top-dose-only effect; inactive = flat fitted curve, though single readings scatter. A potency beside an inconclusive call is a rough fit, not a confirmed value.
% is set by controls: 0 for no effect and ±100 for the full control effect; potency is the fitted concentration of half-maximal effect.
Note: nearly all actives have a fitted effect of over 65% in size.
Throughout, for max response, negative = inhibition: series mostly up to about 57 µM.

The chains behind the UniProt entries cited, without tags or fusion partners.
UniProt P53350, whole entry, looked up: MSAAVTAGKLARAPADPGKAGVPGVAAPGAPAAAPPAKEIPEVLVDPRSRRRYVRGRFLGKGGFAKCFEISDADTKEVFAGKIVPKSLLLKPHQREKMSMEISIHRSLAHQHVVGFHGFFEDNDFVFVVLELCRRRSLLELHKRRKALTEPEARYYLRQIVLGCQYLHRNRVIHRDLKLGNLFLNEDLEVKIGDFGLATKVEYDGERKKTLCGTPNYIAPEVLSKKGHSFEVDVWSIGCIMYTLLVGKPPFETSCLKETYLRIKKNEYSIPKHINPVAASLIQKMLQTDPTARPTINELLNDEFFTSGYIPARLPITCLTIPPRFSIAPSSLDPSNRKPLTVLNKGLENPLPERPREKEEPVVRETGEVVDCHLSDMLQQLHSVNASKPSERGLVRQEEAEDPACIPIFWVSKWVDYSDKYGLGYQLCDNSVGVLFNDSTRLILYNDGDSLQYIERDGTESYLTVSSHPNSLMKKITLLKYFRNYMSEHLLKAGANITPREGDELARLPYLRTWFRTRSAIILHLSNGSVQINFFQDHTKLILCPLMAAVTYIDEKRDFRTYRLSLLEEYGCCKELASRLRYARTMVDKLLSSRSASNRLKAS

The compounds below were run against Serine/threonine-protein kinase PLK1 (Homo sapiens) (UniProt P53350) (assay: qHTS for Inhibitors of PLK1-PDB (polo-like kinase 1 - polo-box domain): Primary Screen). Details: Plk1 PBD binding of FITC phosphopeptide, fluorescence polarization.
CCN(CC)CC(=O)c1ccc(-c2ccccc2)cc1 was tested, and the Potency was inconclusive: 33.6 µM [inhibitor, single point].
With COc1cccc(NC(=S)N(Cc2cccc(Br)c2)CC2CCC(C(=O)O)CC2)c1 (stereo not given) the Potency was inconclusive: 37.7 µM [inhibitor, partial curve].
CC(=O)Nc1c(C)cc(OCC(=O)O)cc1C was tested, and the Potency was inconclusive: 21.2 µM [inhibitor, partial curve].
In the case of Cc1ccc(-c2cc3nc(-c4ccccc4)cc(N4CCOCC4)n3n2)cc1, the Potency was active: 26.7 µM.
With Cc1cc(C(=O)Nc2ccccc2C(=O)O)ccc1NC(=O)COc1cccc(C)c1C the Potency was inconclusive: 23.8 µM [inhibitor, partial curve].
With Cc1c(C(=O)NCc2ccccn2)oc2ccc(S(=O)(=O)N3CCC4(CC3)OCCO4)cc12 the Potency was inconclusive: 67 µM [inhibitor, partial curve].
Cc1ccccc1CNC(=O)CN(c1cccc([N+](=O)[O-])c1)S(C)(=O)=O was tested, and the max response, negative = inhibition was inactive: 3.53%.
CS(=O)(=O)Nc1cccc(NC(=O)C2Cc3c(-c4ccco4)ccnc3O2)c1 (stereo not given) was tested, and the max response, negative = inhibition was inactive: -12.8%.
O=C(NNC(=O)c1ccc(F)c(S(=O)(=O)N2CCOCC2)c1)c1ccc([N+](=O)[O-])cc1 was tested, and the max response, negative = inhibition was inactive: -2.33%.
In the case of CCCN(CCC)S(=O)(=O)c1cccc(-c2csc(C)n2)c1, the max response, negative = inhibition was inactive: -5.61%.
With Cc1ccc(Cn2c(C)nc3c(c2=O)c2nc4ccccc4nc2n3Cc2ccco2)cc1 the Potency was inconclusive: 23.8 µM [inhibitor, partial curve].
CCOc1ccc(C(=O)Nc2cc(NC(=O)c3ccc(OCC)c(Cl)c3)cc(C(=O)O)c2)cc1Cl was tested, and the Potency was inconclusive: 26.7 µM [inhibitor, single point].
Cn1c(C(=O)NC2CCCC2)cc2c(=O)n(C)c3ccccc3c21 was tested, and the Potency was active: 29.9 µM.
For O=C(O)CCN1C(=O)/C(=C\c2cccc(OCC(=O)Nc3ccc(Cl)cc3)c2)SC1=S, the Potency was active: 26.7 µM.
For Cc1c(C(=O)O)c(O)cc2c1C(=O)c1c(O)c([C@@H]3O[C@H](CO)[C@@H](O)[C@H](O)[C@H]3O)c(O)c(O)c1C2=O, the max response, negative = inhibition was inactive: -10.2%.
CC(=O)Nc1ccc(SC(Sc2ccc(NC(C)=O)cc2)c2ccccc2)cc1 was tested, and the Potency was active: 16.8 µM.
With CC(C)(C)c1nnc2sc(SCC(=O)N3CCc4ccccc43)nn2c1=O the Potency was active: 26.7 µM.
O=C(O)COc1ccccc1/C=N/NC(=O)CSc1nc2ccccc2n1Cc1ccc(Cl)cc1 was tested, and the Potency was inconclusive: 23.8 µM [inhibitor, single point].
With CC(C)(C)C(=O)OCc1nc(-c2ccc(O)c(O)c2)cs1 the Potency was inconclusive: 21.2 µM [inhibitor, partial curve].
In the case of COc1ccc(NC(=O)CC(C)=O)c(OC)c1, the max response, negative = inhibition was inactive: -8.81%.
With Cc1cc(C)c(S(=O)(=O)NCC2CCC(C(=O)NCCCN3CCC(C)CC3)CC2)c(C)c1 (stereo not given) the Potency was active: 23.8 µM.
With O=C(O)c1ccc(-n2ncc3c2/C(=C/c2cccc([N+](=O)[O-])c2)CC3)cc1 the Potency was inconclusive: 26.7 µM [inhibitor, single point].
With CC(C)c1ccc(Nc2nnc(SCC(=O)c3nnc(-c4ccccc4)o3)s2)cc1 the Potency was inconclusive: 18.9 µM [inhibitor, partial curve].
COc1ccc(OC)c(C(=O)NC(CC(N)=O)c2ccc(NCCN3CCCC3)c([N+](=O)[O-])c2)c1 (stereo not given) was tested, and the Potency was inconclusive: 23.8 µM [inhibitor, single point].
CCOP(=O)(OCC)C(C#N)=C1SCN(c2ccccc2)CS1 was tested, and the Potency was inconclusive: 15 µM [inhibitor, partial curve].
With COc1ccc(-c2oc3ccccc3c2C(=O)OCc2ccccc2)cc1 the Potency was active: 23.8 µM.
With CCOC(=O)c1c(-c2ccccc2)csc1NC(=O)C(C)NCc1ccco1 (stereo not given) the max response, negative = inhibition was inactive: -19.5%.
COC(=O)c1oc2ccc(Cl)cc2c1N was tested, and the Potency was inconclusive: 29.9 µM [inhibitor, single point].
For COC(=O)C1=C(C)NC(=O)NC1c1c(O)ccc2ccccc12 (stereo not given), the max response, negative = inhibition was inactive: -6.29%.
With CCOC(=O)c1ccc(S(=O)(=O)N2CCC(N3CCCCCC3)CC2)cc1 the max response, negative = inhibition was inactive: -6.25%.
CC(=O)NCCC(=O)Nc1cc(S(=O)(=O)Nc2ccc(Cl)cc2)ccc1N1CCCC1 was tested, and the Potency was active: 26.7 µM.
For CCOc1ccccc1NC(=O)C(NCC1(N2CCCCC2)CCCCC1)c1ccccc1 (stereo not given), the max response, negative = inhibition was inactive: -4.02%.
O=C(COc1ccccc1/C=C1\SC(=S)NC1=O)Nc1ccc(F)cc1 was tested, and the Potency was inconclusive: 37.7 µM [inhibitor, single point].
In the case of COc1ccc(CNC(=O)CCc2nc(-c3ccccc3F)no2)c(OC)c1, the Potency was inconclusive: 16.8 µM [inhibitor, partial curve].
In the case of COc1ccc(-n2c(Cc3cccn3C)nnc2SCC(=O)NC2CCCCC2)cc1, the max response, negative = inhibition was inactive: 3.28%.
With COc1ccc2c(c1)[n+](=O)c(C(C)=O)c(C)n2[O-] the Potency was inconclusive: 29.9 µM [inhibitor, single point].
In the case of O=c1[nH]c2ccccc2cc1-c1nnn(-c2ccc(F)cc2)n1, the Potency was inconclusive: 37.7 µM [inhibitor, single point].
With Cc1ccccc1CSc1nnc(-c2cccs2)n1Cc1ccco1 the max response, negative = inhibition was inactive: -4.04%.
CCc1ccc(NC(=O)C2CCCN(S(C)(=O)=O)C2)cc1 (stereo not given) was tested, and the Potency was active: 21.2 µM.
In the case of COC(=O)C1NN=C(C(=O)c2ccccc2)C1c1ccccc1 (stereo not given), the Potency was inconclusive: 29.9 µM [inhibitor, single point].
In the case of Cc1cccc(CNC(=O)c2ccccc2NC(=O)C2=CSCCO2)c1, the Potency was inconclusive: 29.9 µM [inhibitor, partial curve].
In the case of CC(=O)N1c2ccc(S(=O)(=O)NCCC(=O)N3CCCC(C)C3)cc2CC1C (stereo not given), the Potency was active: 23.8 µM.
In the case of Cn1ccc(=S)c2ccccc21, the Potency was active: 11.9 µM.
In the case of O=C(NNC(=O)c1cc(-c2ccccc2)nc2ccccc12)Nc1cccc(Cl)c1, the max response, negative = inhibition was inactive: -10.9%.
In the case of O=C(Nc1ccc(Cl)cc1)c1csc([C@@H]2O[C@H](CO)[C@H](O)[C@H](O)[C@H]2O)n1, the max response, negative = inhibition was inactive: 2.4%.
In the case of Cc1nc2c(C(=O)NCc3ccc4c(c3)OCO4)c[nH]n2c(=O)c1Cl, the Potency was inconclusive: 21.2 µM [inhibitor, partial curve].
With Cc1ccc(S(=O)(=O)Nc2ccc3oc(=O)sc3c2)c(C)c1 the Potency was inconclusive: 37.7 µM [inhibitor, single point].
COC(=O)c1ccc(Sc2ccccc2NS(=O)(=O)c2ccc(NC(C)=O)cc2)nc1 was tested, and the Potency was inconclusive: 23.8 µM [inhibitor, partial curve].
With COc1ccccc1-n1cc(-c2ccccc2)[nH]c1=S the Potency was inconclusive: 23.8 µM [inhibitor, single point].
With O=S(=O)(Nc1nc(-c2ccccc2)cs1)c1cc(Cl)ccc1Cl the Potency was inconclusive: 26.7 µM [inhibitor, partial curve].
In the case of CC1(C(=O)NCc2ccccc2)Cc2c(-c3cccc(C(N)=O)c3)ccnc2O1 (stereo not given), the max response, negative = inhibition was inactive: 4.79%.
In the case of NC(=O)c1sc(-c2ccsc2)cc1NS(=O)(=O)c1ccc(C(F)(F)F)cc1, the Potency was inconclusive: 29.9 µM [inhibitor, single point].
c1coc(-c2nc(-c3ccco3)c(-c3ccco3)nc2-c2ccco2)c1 was tested, and the Potency was active: 11.9 µM.
With CCOC(=O)/C=C/C(=O)OCC(=O)Nc1cccc(Br)c1 the Potency was inconclusive: 21.2 µM [inhibitor, partial curve].
O=C1CC(c2ccccc2)Oc2cc(O)cc(O)c21 (stereo not given) was tested, and the max response, negative = inhibition was inactive: -4.54%.
In the case of N=C1/C(=C\c2ccc(OC(=O)c3ccccc3)cc2)C(=O)N=C2SC(N3CCOCC3)=NN12, the Potency was active: 23.8 µM.
In the case of COc1ccc(OC)c(S(=O)(=O)N2CCCCC2C(=O)N2CCN(c3ccccn3)CC2)c1 (stereo not given), the Potency was inconclusive: 26.7 µM [inhibitor, partial curve].
CCCNC(=O)Nc1ccccc1SC was tested, and the Potency was inconclusive: 18.9 µM [inhibitor, partial curve].
O=C(c1cc2cc(Br)ccc2[nH]1)N1CCc2ccccc21 was tested, and the max response, negative = inhibition was inactive: -5.39%.
In the case of O=C(/C=C\NCC(=O)c1ccccc1)c1ccc2ccccc2c1, the max response, negative = inhibition was inactive: -23.7%.
O=C(/C=C/c1cccc([N+](=O)[O-])c1)NCc1cccnc1 was tested, and the max response, negative = inhibition was inconclusive: -30.3% [inhibitor].
COCOCCn1cc(CN2CCS(=O)(=O)N(Cc3ccc(-c4ccc(F)cc4)cc3)C(C(C)C)C2=O)nn1 (stereo not given) was tested, and the max response, negative = inhibition was inactive: 2.29%.
In the case of CC1=CC2C(C(O)CC3(C)C2CC(C)C32OCOC23COCO3)C2(C)C/C(=C\O)C(=O)C=C12 (stereo not given), the Potency was inconclusive: 26.7 µM [inhibitor, partial curve].
CN=C1SC(CC(=O)Nc2ccc(F)cc2F)C(=O)N1/N=C/c1ccc(OC(F)F)c(OC)c1 (stereo not given) was tested, and the Potency was inconclusive: 21.2 µM [inhibitor, partial curve].
With Cc1ccc(/C=N/n2c(-c3cccc(Cl)c3)n[nH]c2=S)o1 the Potency was inconclusive: 33.6 µM [inhibitor, partial curve].
With O=C(Nc1nc(-c2nc3ccccc3s2)cs1)C1CC1 the max response, negative = inhibition was inactive: -7.93%.
For CCN(c1ccc(NC(=O)COC(=O)/C=C/c2cccs2)cc1)C(C)C, the max response, negative = inhibition was inactive: -25.2%.
With Cc1ccc(C(=O)Oc2csc(=S)n2C(=O)c2ccc(C)cc2)cc1 the Potency was active: 2.99 µM.
For CCc1cc(C(=O)N=Nc2c(O)[nH]c3ccc([N+](=O)[O-])cc23)c2ccccc2n1, the Potency was inconclusive: 23.8 µM [inhibitor, partial curve].
For O=C(O)CCS(=O)(=O)c1cc(Br)cc2c1N(C(=O)C1CC1)CC2, the Potency was inconclusive: 23.8 µM [inhibitor, partial curve, poor fit].
